The supplement of paper PMC11732987, “Enantioselective OTUD7B fragment discovery through chemoproteomics screening and high-throughput optimisation” (Communications Chemistry, 2025)
Some of the results follow. The data scatter; read single values as rough.

Protein sequences, listed by entry. Tags and fused reporters are not part of them. Lines headed by an entry give the natural chain unless they say otherwise; changes in a name come on top. Residues count along the entry.
UniProt Q9C0D5, 1630-1655: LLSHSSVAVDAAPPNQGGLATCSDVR
UniProt Q9C0B7: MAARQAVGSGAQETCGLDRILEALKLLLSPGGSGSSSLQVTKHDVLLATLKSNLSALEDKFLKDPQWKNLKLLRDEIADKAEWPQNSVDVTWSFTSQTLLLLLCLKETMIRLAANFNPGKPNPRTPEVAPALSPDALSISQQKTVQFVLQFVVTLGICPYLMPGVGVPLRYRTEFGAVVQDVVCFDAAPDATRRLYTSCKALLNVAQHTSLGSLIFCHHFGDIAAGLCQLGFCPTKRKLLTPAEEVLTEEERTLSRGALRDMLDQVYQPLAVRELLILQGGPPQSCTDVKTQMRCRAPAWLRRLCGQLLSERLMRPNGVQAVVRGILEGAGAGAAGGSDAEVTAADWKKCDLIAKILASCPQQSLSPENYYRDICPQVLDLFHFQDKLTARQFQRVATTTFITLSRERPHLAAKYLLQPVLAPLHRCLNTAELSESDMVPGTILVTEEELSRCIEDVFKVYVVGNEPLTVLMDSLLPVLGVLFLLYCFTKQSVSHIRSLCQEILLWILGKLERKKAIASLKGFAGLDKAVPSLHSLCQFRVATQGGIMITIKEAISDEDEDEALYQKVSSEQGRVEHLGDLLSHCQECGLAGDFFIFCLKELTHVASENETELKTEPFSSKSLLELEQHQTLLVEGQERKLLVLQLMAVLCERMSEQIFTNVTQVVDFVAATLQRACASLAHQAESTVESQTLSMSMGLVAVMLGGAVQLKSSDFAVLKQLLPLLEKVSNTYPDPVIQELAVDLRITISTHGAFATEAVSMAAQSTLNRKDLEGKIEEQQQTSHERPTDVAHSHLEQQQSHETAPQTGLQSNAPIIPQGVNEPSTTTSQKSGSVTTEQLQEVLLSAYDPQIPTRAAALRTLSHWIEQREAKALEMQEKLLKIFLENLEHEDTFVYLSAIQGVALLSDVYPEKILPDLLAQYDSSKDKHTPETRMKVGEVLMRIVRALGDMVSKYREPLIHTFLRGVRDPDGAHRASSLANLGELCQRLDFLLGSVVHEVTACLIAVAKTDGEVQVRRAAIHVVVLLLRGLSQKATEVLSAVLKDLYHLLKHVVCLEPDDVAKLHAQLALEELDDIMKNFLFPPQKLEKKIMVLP
UniProt Q9HCD6: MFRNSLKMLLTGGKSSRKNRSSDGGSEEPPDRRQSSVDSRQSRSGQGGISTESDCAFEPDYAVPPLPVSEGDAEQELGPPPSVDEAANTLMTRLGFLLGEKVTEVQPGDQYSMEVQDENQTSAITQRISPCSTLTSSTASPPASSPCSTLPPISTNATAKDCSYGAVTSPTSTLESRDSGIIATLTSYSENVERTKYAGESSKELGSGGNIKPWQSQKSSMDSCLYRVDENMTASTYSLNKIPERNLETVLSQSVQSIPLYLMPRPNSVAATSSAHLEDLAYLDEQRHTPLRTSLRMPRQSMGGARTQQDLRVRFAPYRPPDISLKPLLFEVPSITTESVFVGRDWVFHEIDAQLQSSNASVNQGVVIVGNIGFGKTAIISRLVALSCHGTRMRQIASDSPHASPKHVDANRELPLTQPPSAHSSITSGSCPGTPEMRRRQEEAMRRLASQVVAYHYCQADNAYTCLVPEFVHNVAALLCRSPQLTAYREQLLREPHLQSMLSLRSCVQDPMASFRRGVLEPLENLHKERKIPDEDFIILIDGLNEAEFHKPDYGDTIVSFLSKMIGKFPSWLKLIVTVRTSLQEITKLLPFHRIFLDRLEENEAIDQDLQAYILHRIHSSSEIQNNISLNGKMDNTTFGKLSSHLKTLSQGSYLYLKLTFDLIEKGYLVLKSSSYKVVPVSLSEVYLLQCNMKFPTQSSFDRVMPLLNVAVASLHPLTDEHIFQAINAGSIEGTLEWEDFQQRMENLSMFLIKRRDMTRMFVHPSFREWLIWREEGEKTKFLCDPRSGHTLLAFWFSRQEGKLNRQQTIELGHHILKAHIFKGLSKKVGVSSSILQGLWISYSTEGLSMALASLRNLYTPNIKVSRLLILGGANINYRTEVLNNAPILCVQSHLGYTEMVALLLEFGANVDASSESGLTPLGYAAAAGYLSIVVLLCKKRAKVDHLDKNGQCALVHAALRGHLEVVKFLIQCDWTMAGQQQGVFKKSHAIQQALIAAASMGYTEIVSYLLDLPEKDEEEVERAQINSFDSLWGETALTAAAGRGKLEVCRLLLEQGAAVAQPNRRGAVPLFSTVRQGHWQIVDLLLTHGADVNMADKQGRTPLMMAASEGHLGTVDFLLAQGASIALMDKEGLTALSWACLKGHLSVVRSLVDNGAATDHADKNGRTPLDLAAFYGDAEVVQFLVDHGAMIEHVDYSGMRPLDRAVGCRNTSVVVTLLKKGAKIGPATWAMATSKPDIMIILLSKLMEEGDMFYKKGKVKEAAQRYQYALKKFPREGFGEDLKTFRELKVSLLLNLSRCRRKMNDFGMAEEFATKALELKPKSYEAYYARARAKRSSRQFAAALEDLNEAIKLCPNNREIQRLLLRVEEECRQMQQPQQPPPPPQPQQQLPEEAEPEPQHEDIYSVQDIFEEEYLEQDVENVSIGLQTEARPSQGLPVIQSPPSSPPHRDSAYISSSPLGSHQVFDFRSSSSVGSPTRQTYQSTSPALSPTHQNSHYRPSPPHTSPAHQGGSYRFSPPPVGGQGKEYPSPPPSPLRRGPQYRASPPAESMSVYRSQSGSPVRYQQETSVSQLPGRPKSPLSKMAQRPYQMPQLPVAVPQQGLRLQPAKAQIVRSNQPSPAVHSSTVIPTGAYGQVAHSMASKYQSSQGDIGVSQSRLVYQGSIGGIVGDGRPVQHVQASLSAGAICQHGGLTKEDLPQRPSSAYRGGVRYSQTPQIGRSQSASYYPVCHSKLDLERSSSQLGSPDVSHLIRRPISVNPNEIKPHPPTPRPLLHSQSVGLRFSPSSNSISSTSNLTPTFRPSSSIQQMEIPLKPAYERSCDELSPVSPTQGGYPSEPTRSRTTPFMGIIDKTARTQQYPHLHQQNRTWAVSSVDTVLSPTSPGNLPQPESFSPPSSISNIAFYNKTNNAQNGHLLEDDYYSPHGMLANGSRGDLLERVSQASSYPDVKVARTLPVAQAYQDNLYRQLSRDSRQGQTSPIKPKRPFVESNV
UniProt Q9Y6J9: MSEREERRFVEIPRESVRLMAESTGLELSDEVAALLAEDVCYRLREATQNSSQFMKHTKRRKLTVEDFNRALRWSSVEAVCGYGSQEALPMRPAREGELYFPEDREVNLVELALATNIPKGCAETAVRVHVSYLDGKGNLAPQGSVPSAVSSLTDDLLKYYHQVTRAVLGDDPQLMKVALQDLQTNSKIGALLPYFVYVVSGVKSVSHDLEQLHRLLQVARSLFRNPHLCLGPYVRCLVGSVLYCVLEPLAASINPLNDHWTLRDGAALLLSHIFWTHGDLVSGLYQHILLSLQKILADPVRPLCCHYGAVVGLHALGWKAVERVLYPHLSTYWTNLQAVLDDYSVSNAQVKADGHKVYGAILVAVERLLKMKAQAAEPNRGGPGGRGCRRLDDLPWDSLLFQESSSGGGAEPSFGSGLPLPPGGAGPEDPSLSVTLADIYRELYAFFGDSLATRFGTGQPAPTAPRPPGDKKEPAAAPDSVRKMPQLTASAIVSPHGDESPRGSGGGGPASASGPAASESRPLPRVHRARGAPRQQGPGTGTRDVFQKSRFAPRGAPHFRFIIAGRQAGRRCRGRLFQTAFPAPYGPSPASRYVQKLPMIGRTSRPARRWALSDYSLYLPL
UniProt O60343: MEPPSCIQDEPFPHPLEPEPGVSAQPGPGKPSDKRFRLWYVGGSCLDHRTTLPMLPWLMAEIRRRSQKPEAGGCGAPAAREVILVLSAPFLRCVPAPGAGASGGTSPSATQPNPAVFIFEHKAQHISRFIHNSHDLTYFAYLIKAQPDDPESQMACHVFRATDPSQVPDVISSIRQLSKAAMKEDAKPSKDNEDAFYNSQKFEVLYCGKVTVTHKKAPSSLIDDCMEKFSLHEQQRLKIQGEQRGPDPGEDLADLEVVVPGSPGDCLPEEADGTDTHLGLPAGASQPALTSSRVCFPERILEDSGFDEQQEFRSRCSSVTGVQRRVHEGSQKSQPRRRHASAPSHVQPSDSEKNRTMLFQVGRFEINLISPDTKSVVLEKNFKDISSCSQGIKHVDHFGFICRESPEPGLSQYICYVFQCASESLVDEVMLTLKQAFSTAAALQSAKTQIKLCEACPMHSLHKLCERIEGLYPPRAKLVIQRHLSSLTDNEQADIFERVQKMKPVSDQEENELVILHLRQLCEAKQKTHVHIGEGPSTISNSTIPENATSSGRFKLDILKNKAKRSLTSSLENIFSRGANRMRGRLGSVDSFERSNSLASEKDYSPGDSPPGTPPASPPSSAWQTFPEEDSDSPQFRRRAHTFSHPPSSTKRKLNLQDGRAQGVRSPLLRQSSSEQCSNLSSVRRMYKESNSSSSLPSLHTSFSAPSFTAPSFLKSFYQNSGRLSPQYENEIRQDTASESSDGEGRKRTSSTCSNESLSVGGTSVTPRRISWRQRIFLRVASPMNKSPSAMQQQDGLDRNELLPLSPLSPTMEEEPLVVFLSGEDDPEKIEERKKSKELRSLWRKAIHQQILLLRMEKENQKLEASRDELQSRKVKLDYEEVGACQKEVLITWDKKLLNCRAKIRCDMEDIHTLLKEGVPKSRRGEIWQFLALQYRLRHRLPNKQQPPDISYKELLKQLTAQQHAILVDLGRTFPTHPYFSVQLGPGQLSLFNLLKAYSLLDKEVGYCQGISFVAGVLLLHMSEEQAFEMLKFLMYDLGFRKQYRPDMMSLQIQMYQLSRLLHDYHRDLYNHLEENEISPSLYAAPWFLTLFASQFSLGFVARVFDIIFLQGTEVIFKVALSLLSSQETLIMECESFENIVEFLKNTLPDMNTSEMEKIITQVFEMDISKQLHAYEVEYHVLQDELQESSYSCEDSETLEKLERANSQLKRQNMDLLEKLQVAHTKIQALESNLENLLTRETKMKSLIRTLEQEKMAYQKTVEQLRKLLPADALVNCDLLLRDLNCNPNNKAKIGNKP
UniProt P37802, 58-78: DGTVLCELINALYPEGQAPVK
UniProt Q03519, whole entry, looked up: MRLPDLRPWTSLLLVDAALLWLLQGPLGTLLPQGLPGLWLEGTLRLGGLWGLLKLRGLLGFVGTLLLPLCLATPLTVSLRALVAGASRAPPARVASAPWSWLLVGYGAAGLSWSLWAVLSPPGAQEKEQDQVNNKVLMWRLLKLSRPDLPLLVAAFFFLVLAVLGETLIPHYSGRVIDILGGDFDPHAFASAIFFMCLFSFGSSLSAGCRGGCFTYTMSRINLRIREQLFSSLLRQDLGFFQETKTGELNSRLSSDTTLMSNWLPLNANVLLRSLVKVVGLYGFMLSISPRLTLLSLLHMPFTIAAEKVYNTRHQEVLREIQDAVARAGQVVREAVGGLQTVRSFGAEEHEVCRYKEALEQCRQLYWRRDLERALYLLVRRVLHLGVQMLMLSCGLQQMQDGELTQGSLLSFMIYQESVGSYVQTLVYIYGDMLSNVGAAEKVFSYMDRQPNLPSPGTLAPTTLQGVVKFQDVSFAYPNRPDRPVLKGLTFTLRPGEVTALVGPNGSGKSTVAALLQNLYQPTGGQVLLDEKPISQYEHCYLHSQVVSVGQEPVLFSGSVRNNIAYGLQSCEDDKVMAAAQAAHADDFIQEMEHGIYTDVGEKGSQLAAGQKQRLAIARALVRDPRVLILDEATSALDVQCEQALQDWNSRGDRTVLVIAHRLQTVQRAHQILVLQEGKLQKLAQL
UniProt Q969Z0: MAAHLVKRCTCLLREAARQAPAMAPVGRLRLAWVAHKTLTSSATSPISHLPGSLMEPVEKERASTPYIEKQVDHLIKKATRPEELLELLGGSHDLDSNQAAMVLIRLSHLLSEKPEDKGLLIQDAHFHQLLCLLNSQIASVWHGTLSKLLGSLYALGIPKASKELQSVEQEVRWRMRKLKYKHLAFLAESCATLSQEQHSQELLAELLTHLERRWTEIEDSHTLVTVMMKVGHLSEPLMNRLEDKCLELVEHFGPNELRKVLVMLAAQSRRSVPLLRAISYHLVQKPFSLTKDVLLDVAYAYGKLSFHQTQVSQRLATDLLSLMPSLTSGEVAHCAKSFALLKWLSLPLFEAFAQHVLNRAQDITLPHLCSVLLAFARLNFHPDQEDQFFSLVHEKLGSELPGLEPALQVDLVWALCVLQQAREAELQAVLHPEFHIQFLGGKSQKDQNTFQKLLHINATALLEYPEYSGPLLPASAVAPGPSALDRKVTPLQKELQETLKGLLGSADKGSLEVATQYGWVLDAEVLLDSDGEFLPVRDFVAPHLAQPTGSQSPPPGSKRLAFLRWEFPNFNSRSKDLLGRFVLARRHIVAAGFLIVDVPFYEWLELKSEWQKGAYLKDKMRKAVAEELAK
UniProt Q03167, 819-851: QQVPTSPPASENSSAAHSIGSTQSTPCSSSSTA

Assays:
[1] = compound: ClCC(=O)N[C@@H]1CCCc2ccccc12; assay: log2 mean competition ratio of IA-DTB cysteine labelling (DMSO/compound) (log2 ratio); higher = stronger cysteine engagement by compound; conditions: treatment time: 4 h, cell line lysate: HEK293T
Protocol: (§1)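 IA-DTB competitive cysteine chemoproteomics in HEK293T RIPA lysate. Lysates were treated with compound 29 or 30 at 50 or 200 µM for 4 h, then IA-DTB (500 µM, 1 h), trypsin-digested, NeutrAvidin-enriched and analysed by diaPASEF. Competition ratio = intensity DMSO / intensity compound (n=4 treated, n=64 DMSO); binding: mean log2 CR ≥ 1 and p ≤ 0.05 plus QC filters. Target is the cysteine site.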

[2] = compound: ClCC(=O)N[C@H]1CCCc2ccccc12; assay: as above; conditions: treatment time: 4 h, cell line lysate: HEK293T
Protocol: as §1

| Target | log2 mean competition ratio ([1]; 50 µM) | log2 mean competition ratio ([1]; 200 µM) | log2 mean competition ratio ([2]; 50 µM) | log2 mean competition ratio ([2]; 200 µM) |
| --- | --- | --- | --- | --- |
| TIGAR C114 (UniProt Q9NQ88) | -0.253 | -0.0803 | 0.168 | 0.0359 |
| TANC1 C557 (UniProt Q9C0D5) | -0.114 | -0.193 | -0.264 | -0.178 |
| TANGO6 C985 (UniProt Q9C0B7) | -0.0996 | -0.256 | -0.0986 | -0.206 |
| TANC2 C507 (UniProt Q9HCD6) | -0.0092 | -0.0625 | -0.0117 | -0.00804 |
| TAF6L C122 (UniProt Q9Y6J9) | 0.0296 | 0.0549 | -0.12 | 0.259 |
| TBC1D4 C906 (UniProt O60343) | -0.172 | 0.0612 | -0.281 | -0.0392 |
| TBCEL C121 (UniProt Q5QJ74) | 0.101 | -0.0545 | -0.342 | -0.2 |
| TAGLN2 C63 (UniProt P37802) | -0.292 | -0.116 | 0.256 | -0.444 |
| TCAF1 C126 (UniProt Q9Y4C2) | -0.17 | 0.143 | -0.329 | 0.0958 |
| TANC1 C1651 (UniProt Q9C0D5) | 0.335 | -0.199 | 0.596 | 0.00345 |
| TASOR2 C1739 (UniProt Q5VWN6) | -0.764 | 0.0619 | -0.374 | 0.138 |
| TAP2 C362 (UniProt Q03519) | 0.0944 | 0.0125 | -0.353 | -0.0604 |
| TBRG4 C246 (UniProt Q969Z0) | -0.281 | 0.71 | 0.0619 | 0.352 |
| THADA C588 (UniProt Q6YHU6) | -0.0258 | -0.0407 | 0.793 | 0.0829 |
| TBCA C67 | -0.201 | -0.22 | 0.297 | 0.00176 |
| TGFBR3 C845 (UniProt Q03167) | -0.194 | -0.346 | 0.283 | -0.595 |

Single entries from the list:
TIGAR C114 (UniProt Q9NQ88) | log2 mean competition ratio ([1]; 200 µM): -0.0803
TAF6L C122 (UniProt Q9Y6J9) | log2 mean competition ratio ([1]; 50 µM): 0.0296
